Results as given in paper PMC6424967.
Where a chain is given by its changes, count along the chain named. Results are given in words; binding and its absence hold for the method and conditions named. Binding seen in cells or lysates may run through a third protein. Some binding calls cover weakened binding; strength is not graded here. Where a sequence is shown, tags or fusion partners need not be part of it.

The chains behind the UniProt entries cited, without tags or fusion partners. Where a name states a change or a piece, a line headed by the entry shows the natural chain unless it says otherwise.
UniProt P40337: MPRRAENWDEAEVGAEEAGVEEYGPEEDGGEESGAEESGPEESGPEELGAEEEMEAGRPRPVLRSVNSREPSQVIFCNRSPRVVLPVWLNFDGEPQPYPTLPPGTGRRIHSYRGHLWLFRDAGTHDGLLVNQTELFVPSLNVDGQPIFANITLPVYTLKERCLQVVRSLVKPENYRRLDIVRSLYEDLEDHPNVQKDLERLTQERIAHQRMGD
UniProt Q99814: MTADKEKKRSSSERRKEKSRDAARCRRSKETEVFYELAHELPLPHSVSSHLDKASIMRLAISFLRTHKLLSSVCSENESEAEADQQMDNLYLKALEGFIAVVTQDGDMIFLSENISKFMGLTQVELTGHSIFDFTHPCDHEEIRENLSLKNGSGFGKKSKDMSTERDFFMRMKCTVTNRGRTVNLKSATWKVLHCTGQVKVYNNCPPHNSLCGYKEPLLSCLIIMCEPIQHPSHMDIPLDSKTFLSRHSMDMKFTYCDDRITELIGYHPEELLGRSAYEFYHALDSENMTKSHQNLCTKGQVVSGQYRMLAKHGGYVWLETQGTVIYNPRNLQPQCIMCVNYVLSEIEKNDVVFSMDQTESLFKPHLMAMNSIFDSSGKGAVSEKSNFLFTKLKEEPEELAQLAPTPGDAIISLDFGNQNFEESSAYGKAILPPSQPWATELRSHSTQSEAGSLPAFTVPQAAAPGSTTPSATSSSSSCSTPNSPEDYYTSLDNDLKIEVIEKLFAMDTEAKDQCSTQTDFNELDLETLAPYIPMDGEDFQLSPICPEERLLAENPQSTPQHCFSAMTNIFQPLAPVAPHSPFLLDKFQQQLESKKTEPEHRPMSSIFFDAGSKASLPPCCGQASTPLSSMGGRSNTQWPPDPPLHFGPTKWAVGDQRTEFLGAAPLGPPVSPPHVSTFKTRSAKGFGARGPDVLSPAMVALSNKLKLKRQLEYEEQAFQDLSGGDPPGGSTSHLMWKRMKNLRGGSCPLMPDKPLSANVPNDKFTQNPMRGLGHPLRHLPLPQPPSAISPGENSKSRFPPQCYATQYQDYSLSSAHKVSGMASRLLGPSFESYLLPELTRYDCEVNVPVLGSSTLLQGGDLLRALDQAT

Experiments:
V5-RSUME Y61A/P62A = target: T1, V5-RSUME Y61A/P62A (UniProt Q9Y3V2); assay: co-IP; co-immunoprecipitation of VHL or VHL K171R with the RSUME YAPA variant (Supplementary Fig. S5, lanes 6 and 8); cells and precipitating antibody not told in the text shown
T1 sequence: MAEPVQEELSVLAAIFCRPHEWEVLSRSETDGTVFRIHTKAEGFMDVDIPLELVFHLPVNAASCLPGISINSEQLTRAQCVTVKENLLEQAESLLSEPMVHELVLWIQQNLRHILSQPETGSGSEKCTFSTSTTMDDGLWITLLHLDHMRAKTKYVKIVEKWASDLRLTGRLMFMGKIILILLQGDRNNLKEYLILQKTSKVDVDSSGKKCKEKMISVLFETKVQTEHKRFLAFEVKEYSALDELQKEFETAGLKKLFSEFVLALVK

[1] = target: T2, V5-RSUME (RWD domain-containing protein SUMO Enhancer) (UniProt Q9Y3V2); assay: co-IP; tandem immunoprecipitation: COS-7 cells with Flag-VHL variants, V5-RSUME and HA-HIF-2α, 5 μM MG-132 for 6 h; first IP anti-FLAG, elution with 3xFLAG peptide 100 μg/ml in RIPA buffer 1 h 4 °C, second IP anti-V5; western blot (Fig. 4a)
T2 sequence: T1 sequence with A61Y, A62P

binding (V5-RSUME Y61A/P62A) | binding [1] | Substance
binds |  | Flag-VHL (wild type) (from UniProt P40337 1-213)
binds |  | Flag-VHL K171R (from UniProt P40337 1-213)
 | binds | HA-HIF-2α (from UniProt Q99814 1-870)
